{
  "source": "paper PMC2962900",
  "about": "“Kinetics of Methylation by EcoP1I DNA Methyltransferase” (Enzyme Research, 2010)",
  "binders": {"B1": {"name": "EcoP1I DNA methyltransferase (M.EcoP1I) (enzyme, bacteriophage P1, UniProt P08763 1-646, looked up)", "chain": "MKKETIFSEVETANSKQLAVLKANFPQCFDKNGAFIQEKLLEIIRASEVELSKESYSLNWLGKSYARLLANLPPKTLLAEDKTHNQQEENKNSQNLLIKGDNLEVLKHMVNAYAEKVNMIYIDPPYNTGKDGFVYNDDRKFTPEQLSELAGIELDEANRILEFTTKGSSSHSAWLTFIYPRLYIARELLKEDGVIFISIDDNEDKQLGLLCDEVFGQGNFVAKLPTIMNLKGNHDNFGFSDTHEYIYVYAKNKDVCSLGQFDIDESEVEKEWDEDEYGLFKRADTLKRTGQDASRKSRPKGWFPVFINSENKVYVTDDDKPLNEDDYVLYPVSPTGEELSWSWGKKKINDEFYNLIVIDIKDGKNIYKKQRPALGELPTKKPKSIWYKPEYSTSTATTELKNLLGAKLFEGPKPVPLITDLVKIGTKKDSLVLDFFAGSGTTAEAVAYLNEKDSGCRNFICIQKDEVINKTKNAYSLGYRSIFEITKKRIQEVFKKSTTTSDNAAKIGFKVIHTIDDFRAKVESELTLTNHTFFDDAVLTPEQYDALLTTWCVYDGSLLTTPIEDVDLSGYTAHFCNGRLYLIAPNFTSEALKALLQKLDSDEDFAPNKVVFYGCNFESAKQRELNEALKSYANKKSIELDLVVRN", "notes": "EcoP1I DNA methyltransferase, product of the mod gene of the EcoP1I Type III restriction-modification system of bacteriophage (prophage) P1; 1948 bp gene amplified with primers from the 5' and 3' ends of the open reading frame, cloned in the BamHI site of pET15b (construct pSN2); calculated mass ~75 kDa; No removal of the His6 tag is described. pET15b adds linker residues between the tag and the …"}},
  "key": {"[1]": {"molecular_target": "EcoP1I DNA methyltransferase (M.EcoP1I) (bacteriophage P1) (UniProt P08763)", "test": "SEC; gel filtration of M.EcoP1I loaded in the presence of 500 mM NaCl; data not shown; both purified"}, "[2]": {"molecular_target": "EcoP1I DNA methyltransferase (M.EcoP1I) (bacteriophage P1) (UniProt P08763)", "test": "SEC; rechromatography of the eluted dimer peak and of the high molecular weight peak on the same column; data not shown; both purified"}},
  "note": "No constants are given. Whether binding was seen depends on the method and setting. Some binding calls cover weakened binding; strength is not graded here.",
  "data": [
    {"binder": "B1", "values": [
      {"measurement": "binding", "setting": "[1]", "value": "binds"},
      {"measurement": "binding", "setting": "[2]", "value": "binds"}
    ]}
  ]
}
